From PubChem BioAssay AID270 (DTP/NCI, 2004) come the findings set out here.

The assay concerns BDF1 mice, s.c. Lewis lung carcinoma, T/C %. As to the kind of experiment: NCI In Vivo Anticancer Drug Screen. Data for tumor model Lewis Lung Carcinoma (subcutaneous) in B6D2F1 (BDF1) mice. On the procedure: The antitumor activity of compounds was measured in mice bearing transplantable tumors. Survival or tumor size were measured and the results are expressed as the measurement made in the treated group (T) divided by the measurement made in the vehicle treated control group (C). The tumor model used in this assay is Lewis Lung Carcinoma (subcutaneous) in B6D2F1 (BDF1) mice

Where [1] appears, read: T/C endpoint: median survival time, dose: 75.0 mg/kg/injection, schedule: Q01DX009 (ip), vehicle: saline with Tween-80, higher T/C = longer survival.
Setting [2] is: T/C endpoint: mean tumor weight, dose: 400.0 mg/kg/injection, schedule: Q01DX011 (ip), vehicle: other, higher T/C = larger tumour.
Where [3] appears, read: T/C endpoint: mean tumor weight, dose: 100.0 mg/kg/injection, schedule: Q01DX011 (ip), vehicle: other, higher T/C = larger tumour.

The list shows only some results of the screen, not a fair sample: it is rich in T/C values a quarter to a half above the control, in often repeated tests (any T/C) and in doses without a T/C. Other doses and runs of a compound stand elsewhere. T/C: endpoint of the treated group in % of that of the vehicle group. Schedule codes are those of the source, taken here to give the interval after Q, in days (D) or hours (H), and the number of doses after X. Some T/C values carry the count of animals alive at the toxicity check (mostly the fifth day); without a count, all were alive then. Some entries give survivors of the animals treated and no T/C: the source files T/C as zero there, which appears to mark a toxic dose or a test without result, not a measured value. Some survivor counts are full or nearly so, which does not show that the dose was tolerated: survival well below the control is almost never listed, so the zero probably covers shortened survival too. Counts of survivors are from the toxicity check (mostly the fifth day) where no day follows; animals may have died later. Some doses were run more than once; the values are given in rising order. For survival time, the PubChem record calls one and a half times the control and up active, and a quarter to a half above the control has no call in these data; cut-offs in other NCI protocols can differ.

For `CC1CN1P(=S)(N1CC1C)N1CC1C` (centres undefined), the survivor count is listed as 0 of 6 (T/C endpoint: mean tumor weight, dose: 80.0 mg/kg/injection, schedule: Q01DX011 (ip), vehicle: carboxymethylcellulose (CMC), higher T/C = larger tumour); 0 of 6 (T/C endpoint: mean tumor weight, dose: 120.0 mg/kg/injection, schedule: Q01DX011 (ip), vehicle: carboxymethylcellulose (CMC), higher T/C = larger tumour); 0 of 6 (T/C endpoint: mean tumor weight, dose: 178.0 mg/kg/injection, schedule: Q01DX011 (ip), vehicle: carboxymethylcellulose (CMC), higher T/C = larger tumour); 0 of 6 (T/C endpoint: mean tumor weight, dose: 267.0 mg/kg/injection, schedule: Q01DX011 (ip), vehicle: carboxymethylcellulose (CMC), higher T/C = larger tumour); 0 of 6 (T/C endpoint: mean tumor weight, dose: 400.0 mg/kg/injection, schedule: Q01DX011 (ip), vehicle: carboxymethylcellulose (CMC), higher T/C = larger tumour); 0 of 6 (T/C endpoint: mean tumor weight, dose: 600.0 mg/kg/injection, schedule: Q01DX011 (ip), vehicle: carboxymethylcellulose (CMC), higher T/C = larger tumour).

As for `O=NN(CCCl)C(=O)NC1CCC(O)CC1` (centres undefined), the survivor count (T/C endpoint: median survival time, dose: 20.0 mg/kg/injection, schedule: Q01DX001 (ip), vehicle: other, higher T/C = longer survival) is reported as 10 of 10; the survivor count (T/C endpoint: median survival time, dose: 80.0 mg/kg/injection, schedule: Q01DX001 (ip), vehicle: other, higher T/C = longer survival) is given as 10 of 10; the survivor count (T/C endpoint: median survival time, dose: 160.0 mg/kg/injection, schedule: Q01DX001 (ip), vehicle: Klucel (hydroxypropylcellulose) (HPC), higher T/C = longer survival) is 7 of 10; the survivor count (T/C endpoint: median survival time, dose: 160.0 mg/kg/injection, schedule: Q01DX001 (ip), vehicle: other, higher T/C = longer survival) is on record as 10 of 10. In addition, the T/C (T/C endpoint: median survival time, dose: 40.0 mg/kg/injection, schedule: Q01DX001 (ip), vehicle: other, higher T/C = longer survival) was 136 % of control.

For `CS(=O)(=O)OCCCNCCCOS(C)(=O)=O`, the survivor count was 3 of 6 (T/C endpoint: mean tumor weight, dose: 80.0 mg/kg/injection, schedule: Q01DX011 (ip), vehicle: saline, higher T/C = larger tumour); 10 of 10 (T/C endpoint: median survival time, dose: 40.0 mg/kg/injection, schedule: Q01DX009 (ip), vehicle: saline, higher T/C = longer survival); 10 of 10 (T/C endpoint: median survival time, dose: 80.0 mg/kg/injection, schedule: Q01DX009 (ip), vehicle: saline, higher T/C = longer survival); 9 of 10 (T/C endpoint: median survival time, dose: 160.0 mg/kg/injection, schedule: Q01DX009 (ip), vehicle: saline, higher T/C = longer survival).

As to `COC(=O)c1nc(-c2ccc3c(n2)C(=O)C(N)=C(OC)C3=O)c(N)c(-c2ccc(OC)c(OC)c2O)c1C`, the survivor count (T/C endpoint: mean tumor weight, dose: 2.0 mg/kg/injection, schedule: Q01DX011 (ip), vehicle: other, higher T/C = larger tumour) is recorded as 1 of 6.

Regarding `CCOC(=O)NP(=O)(N1CC1)N1CC1`, the survivor count (T/C endpoint: mean tumor weight, dose: 20.0 mg/kg/injection, schedule: Q01DX011 (ip), vehicle: saline, higher T/C = larger tumour) was 0 of 6 and 1 of 6.

On to `NC(=S)N/N=C/c1cc(-c2cccc(N)c2)ccn1`, for which the T/C reads like this: (T/C endpoint: median survival time, dose: 6.25 mg/kg/injection, schedule: Q01DX009 (ip), vehicle: saline with Tween-80, higher T/C = longer survival) 132 % of control; under setting [1], 132 % of control. The survivor count under setting [1] is reported as 10 of 10.

As for `CCOC(=O)C(=CNc1cccc(Cl)c1)C(=O)OCC`, the T/C (T/C endpoint: mean tumor weight, dose: 333.0 mg/kg/injection, schedule: Q01DX011 (ip), vehicle: other, evaluated on day 12, higher T/C = larger tumour) was 147 % of control. In addition, the survivor count (T/C endpoint: mean tumor weight, dose: 500.0 mg/kg/injection, schedule: Q01DX011 (ip), vehicle: other, higher T/C = larger tumour) is recorded as 2 of 6.

As for `CCOC(=O)[C@H]1CCC[C@@H](NC(=O)N(CCCl)N=O)C1`, the T/C (T/C endpoint: median tumor weight (est.), dose: 13.0 mg/kg/injection, schedule: Q01DX001 (ip), vehicle: gum acacia, evaluated on day 19, higher T/C = larger tumour) was 130 % of control [7 of 10 alive on day 19]. Further, the survivor count is, setting by setting: (T/C endpoint: median tumor weight (est.), dose: 45.0 mg/kg/injection, schedule: Q01DX001 (ip), vehicle: gum acacia, higher T/C = larger tumour) 2 of 10 on day 19; (T/C endpoint: median tumor weight (est.), dose: 67.0 mg/kg/injection, schedule: Q01DX001 (ip), vehicle: gum acacia, higher T/C = larger tumour) 0 of 10 on day 19.

For the molecule `Nc1ncnc2c1ncn2C1CCCO1` (centres undefined), the survivor count under setting [2] is on record as 0 of 6.

As to `CC1(c2ccc(N(CCCl)CCCl)cc2)NC(=O)NC1=O` (centres undefined), the survivor count (T/C endpoint: median survival time, dose: 6.25 mg/kg/injection, schedule: Q01DX009 (ip), vehicle: Klucel (hydroxypropylcellulose) (HPC), higher T/C = longer survival) is listed as 6 of 6.

`C[C@]12CC[C@H]3[C@@H](CC[C@]4(O)C[C@@H](O)CC[C@]34/C=N/O)[C@@]1(O)CC[C@@H]2C1=COC(=O)C1`: the T/C (T/C endpoint: mean tumor weight, dose: 7.5 mg/kg/injection, schedule: Q01DX011 (ip), vehicle: carboxymethylcellulose (CMC), evaluated on day 12, higher T/C = larger tumour) is 141 % of control [4 of 6 alive]. Moreover, the survivor count (T/C endpoint: mean tumor weight, dose: 60.0 mg/kg/injection, schedule: Q01DX011 (ip), vehicle: carboxymethylcellulose (CMC), higher T/C = larger tumour) is 3 of 6.

For `CC1CCC2(OC1)OC1C(O)C3C4CCC5CC(OC6OC(CO)C(OC7OC(CO)C(O)C(OC8OCC(O)C(O)C8O)C7OC7OC(CO)C(O)C(OC8OC(CO)C(O)C(O)C8O)C7O)C(O)C6O)C(O)CC5(C)C4CCC3(C)C1C2C` (centres undefined), the survivor count is, setting by setting: (T/C endpoint: mean tumor weight, dose: 25.0 mg/kg/injection, schedule: Q01DX011 (ip), vehicle: carboxymethylcellulose (CMC), higher T/C = larger tumour) 2 of 6 and 3 of 6; (T/C endpoint: mean tumor weight, dose: 50.0 mg/kg/injection, schedule: Q01DX011 (ip), vehicle: carboxymethylcellulose (CMC), higher T/C = larger tumour) 0 of 6; (T/C endpoint: mean tumor weight, dose: 100.0 mg/kg/injection, schedule: Q01DX011 (ip), vehicle: carboxymethylcellulose (CMC), higher T/C = larger tumour) 0 of 6; (T/C endpoint: mean tumor weight, dose: 200.0 mg/kg/injection, schedule: Q01DX011 (ip), vehicle: carboxymethylcellulose (CMC), higher T/C = larger tumour) 0 of 6. Further, the T/C (T/C endpoint: median survival time, dose: 0.62 mg/kg/injection, schedule: Q01DX009 (ip), vehicle: saline, higher T/C = longer survival) is 129 % of control.

As for `CN(C)CC(C(=O)c1ccc(Br)cc1)C(Br)c1ccccc1` (centres undefined), the T/C (T/C endpoint: median survival time, dose: 20.0 mg/kg/injection, schedule: Q01DX009 (ip), vehicle: saline, higher T/C = longer survival) is 135 % of control.

Regarding `ClCCN(CCCl)CC(Cl)COc1cccc2ccccc12` (centres undefined), the survivor count (T/C endpoint: median survival time, dose: 40.0 mg/kg/injection, schedule: Q01DX009 (ip), vehicle: Klucel (hydroxypropylcellulose) (HPC), higher T/C = longer survival) is listed as 10 of 10.

For `COC1OC(CNC(=O)N(C)N=O)C(O)C(O)C1O` (centres undefined), for the setting “T/C endpoint: median survival time, dose: 400.0 mg/kg/injection, schedule: Q01DX009 (ip), vehicle: saline, higher T/C = longer survival”, the survivor count is 10 of 10.

With `CC(=O)O[C@@H]1[C@H]2O[C@H]2[C@H]2O[C@@]2(COC(=O)c2ccccc2)[C@H]1OC(C)=O`, the T/C (T/C endpoint: mean tumor weight, dose: 250.0 mg/kg/injection, schedule: Q01DX011 (ip), vehicle: carboxymethylcellulose (CMC), evaluated on day 12, higher T/C = larger tumour) is 142 % of control and the T/C (T/C endpoint: mean tumor weight, dose: 400.0 mg/kg/injection, schedule: Q01DX011 (ip), vehicle: carboxymethylcellulose (CMC), evaluated on day 12, higher T/C = larger tumour) was 142 % of control. In addition, the survivor count (T/C endpoint: mean tumor weight, dose: 500.0 mg/kg/injection, schedule: Q01DX011 (ip), vehicle: carboxymethylcellulose (CMC), higher T/C = larger tumour) is listed as 2 of 4.

Consider `Nc1cc(Cl)cc(Cl)c1`, for which the survivor count under setting [3] was 3 of 6.

In the case of `COC1C(OC(=O)c2ccc(C)[nH]2)C(O)C(Oc2ccc3c(O)c(NC(=O)c4ccc(O)c(CC=C(C)C)c4)c(=O)oc3c2Cl)OC1(C)C` (centres undefined), the survivor count was 9 of 10 and 10 of 10 (T/C endpoint: median survival time, dose: 1.5 mg/kg/injection, schedule: Q01DX009 (ip), vehicle: other, higher T/C = longer survival); 8 of 10 (T/C endpoint: median survival time, dose: 3.0 mg/kg/injection, schedule: Q01DX009 (ip), vehicle: other, higher T/C = longer survival); 8 of 10 (T/C endpoint: median survival time, dose: 6.0 mg/kg/injection, schedule: Q01DX009 (ip), vehicle: other, higher T/C = longer survival); 10 of 10 (T/C endpoint: median survival time, dose: 6.25 mg/kg/injection, schedule: Q01DX009 (ip), vehicle: other, higher T/C = longer survival); 9 of 10 and 10 of 10 (T/C endpoint: median survival time, dose: 12.0 mg/kg/injection, schedule: Q01DX009 (ip), vehicle: other, higher T/C = longer survival); 9 of 9 (T/C endpoint: median survival time, dose: 12.5 mg/kg/injection, schedule: Q01DX009 (ip), vehicle: other, higher T/C = longer survival). In addition, the survivor count (T/C endpoint: median survival time, dose: 48.0 mg/kg/injection, schedule: Q01DX009 (ip), vehicle: other, higher T/C = longer survival) was 10 of 10.

Consider `COC(=O)c1ccccc1NC(c1ccccn1)c1ccc2cccnc2c1O` (centres undefined), for which the survivor count is reported as 0 of 6 under setting [3]; 0 of 6 (T/C endpoint: mean tumor weight, dose: 200.0 mg/kg/injection, schedule: Q01DX011 (ip), vehicle: other, higher T/C = larger tumour); 0 of 6 under setting [2]; 0 of 6 (T/C endpoint: mean tumor weight, dose: 800.0 mg/kg/injection, schedule: Q01DX011 (ip), vehicle: other, higher T/C = larger tumour).

Regarding `Nc1nc(N)c2nc(CNc3ccc(C(=O)NC(CCC(=O)O)C(=O)O)cc3)cnc2n1` (centres undefined), the survivor count (T/C endpoint: mean tumor weight, dose: 0.16 mg/kg/injection, schedule: Q01DX011 (ip), vehicle: other, higher T/C = larger tumour) was 4 of 7. Further, the T/C (T/C endpoint: mean tumor weight, dose: 10.0 micrograms/kg/injection, schedule: Q01DX011 (ip), vehicle: saline, evaluated on day 12, higher T/C = larger tumour) was 126 % of control.
